# Assay results from the supplement of paper PMC8728848.
# Some of the results follow.
# B1: GroEL (Clostridium difficile), Q18CT5 (protein)
# chain: MAKEIKFSEETRRALEAGVNKLADTVKVTLGPKGRNVILDKKFGSPLITNDGVTIAKEIELEDRFENMGAQLVKEVATKTNDVAGDGTTTATVLAQAIIREGLKNVTAGANPILLRKGIQKAVTVAVEELKNQSRIVETQEAISQVASISAGDEEVGKLIAEAMEIVGKDGVITVEESQTMNTELDAVEGMQFDRGFVSAYMVTDVDKMEAVLNDPYILITDKKISNIQELLPVLEQIVQQGKKLLIIAEDVEGEALSTLVVNKLRGTFDVVAVKAPGFGDRRKEMLQDIAILTGAQVISEELGYDLKEADLSMLGRASSVKVTKESTTIVDGSGDKKAIEDRVTQIKHQVEQTTSDFDREKLMERLAKLAGGVAVVKVGAATEVELKERKLRIEDALNATRAAVEEGIVAGGGTAFVSVIPAIGTLIESLEGEVKLGAQIVKKALEEPLRQIAINAGLEGAVIVQNVVNSEAETGFDALNEKYVNMIEAGIVDPTKVSRSALQNAASIASTFLTTEAAVADLPEKEDAGMPGMGGGMPGMM
# How the values were obtained:
# Test in all cases: glycan array binding signal (z-score within array); higher = stronger binding
# Conditions in all cases: glycan notation: IUPAC condensed, linker removed
# [1] = molecular target: Neu5Ac(a2-3)Gal(b1-4)GlcNAc(b1-6)[Gal(b1-3)]GalNAc
# How it was run: (§1)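 The Consortium for Functional Glycomics database supplied 3228 glycan arrays, of which those lacking an available protein sequence were dropped. The binding signal, a within-array Z-score, was averaged across arrays of the same protein sequence and across linkers. Negative scores can be read as non-binding.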
# [2] = molecular target: Neu5Ac(a2-3)Gal(b1-4)GlcNAc(b1-6)[Neu5Ac(a2-3)Gal(b1-3)]GalNAc
# How it was run: as §1
# [3] = molecular target: Neu5Ac(a2-3)Gal(b1-4)GlcNAc6S
# How it was run: as §1
# [4] = molecular target: Neu5Ac(a2-3)Gal(b1-4)[Fuc(a1-3)]GlcNAc
# How it was run: as §1
# [5] = molecular target: Neu5Ac(a2-3)Gal(b1-4)[Fuc(a1-3)]GlcNAc(b1-2)Man
# How it was run: as §1
# [6] = molecular target: Neu5Ac(a2-3)Gal(b1-4)[Fuc(a1-3)]GlcNAc(b1-3)Gal
# How it was run: as §1
# [7] = molecular target: Neu5Ac(a2-3)Gal(b1-4)[Fuc(a1-3)]GlcNAc(b1-3)Gal(b1-4)GlcNAc
# How it was run: as §1
# [8] = molecular target: Neu5Ac(a2-3)Gal(b1-4)[Fuc(a1-3)]GlcNAc(b1-3)Gal(b1-4)[Fuc(a1-3)]GlcNAc(b1-3)Gal(b1-4)[Fuc(a1-3)]GlcNAc
# How it was run: as §1
# [9] = molecular target: Neu5Ac(a2-3)Gal(b1-4)[Fuc(a1-3)]GlcNAc(b1-3)GalNAc
# How it was run: as §1
# [10] = molecular target: Neu5Ac(a2-3)Gal(b1-4)[Fuc(a1-3)]GlcNAc(b1-6)[Gal(b1-3)]GalNAc
# How it was run: as §1
# [11] = molecular target: Neu5Ac(a2-3)Gal(b1-4)[Fuc(a1-3)]GlcNAc(b1-6)[Neu5Ac(a2-3)Gal(b1-3)]GalNAc
# How it was run: as §1
# [12] = molecular target: Neu5Ac(a2-3)Gal(b1-4)[Fuc(a1-3)]GlcNAc6S
# How it was run: as §1
# [13] = molecular target: Neu5Ac(a2-3)Gal6S(b1-4)GlcNAc
# How it was run: as §1
# [14] = molecular target: Neu5Ac(a2-3)Gal6S(b1-4)[Fuc(a1-3)]GlcNAc
# How it was run: as §1
# Neu5Ac(a2-3)GalNAc = molecular target: Neu5Ac(a2-3)GalNAc
# How it was run: as §1
# [15] = molecular target: Neu5Ac(a2-3)GalNAc(b1-4)GlcNAc
# How it was run: as §1
# [16] = molecular target: Neu5Ac(a2-3)[GalNAc(b1-4)]Gal(b1-4)Glc
# How it was run: as §1
# [17] = molecular target: Neu5Ac(a2-3)[GalNAc(b1-4)]Gal(b1-4)GlcNAc
# How it was run: as §1
# [18] = molecular target: Neu5Ac(a2-3)[GalNAc(b1-4)]Gal(b1-4)GlcNAc(b1-3)GalNAc
# How it was run: as §1
# [19] = molecular target: Neu5Ac(a2-3)[Neu5Ac(a2-6)]GalNAc
# How it was run: as §1
# Neu5Ac(a2-6)Gal = molecular target: Neu5Ac(a2-6)Gal
# How it was run: as §1
# [20] = molecular target: Neu5Ac(a2-6)Gal(b1-3)GlcNAc(b1-3)[Gal(b1-4)GlcNAc(b1-6)]Gal(b1-4)Glc
# How it was run: as §1
# Neu5Ac(a2-6)Gal(b1-4)Glc = molecular target: Neu5Ac(a2-6)Gal(b1-4)Glc
# How it was run: as §1
# [21] = molecular target: Neu5Ac(a2-6)Gal(b1-4)GlcNAc
# How it was run: as §1
# [22] = molecular target: Neu5Ac(a2-6)Gal(b1-4)GlcNAc(b1-2)Man
# How it was run: as §1
# [23] = molecular target: Neu5Ac(a2-6)Gal(b1-4)GlcNAc(b1-2)Man(a1-3)Man(b1-4)GlcNAc(b1-4)GlcNAc
# How it was run: as §1
# [24] = molecular target: Neu5Ac(a2-6)Gal(b1-4)GlcNAc(b1-2)Man(a1-3)[Gal(b1-4)GlcNAc(b1-2)Man(a1-6)]Man(b1-4)GlcNAc(b1-4)GlcNAc
# How it was run: as §1
# [25] = molecular target: Neu5Ac(a2-6)Gal(b1-4)GlcNAc(b1-2)Man(a1-3)[GlcNAc(b1-2)Man(a1-6)]Man(b1-4)GlcNAc(b1-4)GlcNAc
# How it was run: as §1
# [26] = molecular target: Neu5Ac(a2-6)Gal(b1-4)GlcNAc(b1-2)Man(a1-3)[GlcNAc(b1-4)][Neu5Ac(a2-6)Gal(b1-4)GlcNAc(b1-2)Man(a1-6)]Man(b1-4)GlcNAc(b1-4)GlcNAc
# How it was run: as §1
# [27] = molecular target: Neu5Ac(a2-6)Gal(b1-4)GlcNAc(b1-2)Man(a1-3)[Man(a1-6)]Man(b1-4)GlcNAc(b1-4)GlcNAc
# How it was run: as §1
# [28] = molecular target: Neu5Ac(a2-6)Gal(b1-4)GlcNAc(b1-2)Man(a1-3)[Neu5Ac(a2-3)Gal(b1-4)GlcNAc(b1-2)Man(a1-6)]Man(b1-4)GlcNAc(b1-4)GlcNAc
# How it was run: as §1
# [29] = molecular target: Neu5Ac(a2-6)Gal(b1-4)GlcNAc(b1-2)Man(a1-3)[Neu5Ac(a2-6)Gal(b1-4)GlcNAc(b1-2)Man(a1-6)]Man(b1-4)GlcNAc(b1-4)GlcNAc
# How it was run: as §1
# [30] = molecular target: Neu5Ac(a2-6)Gal(b1-4)GlcNAc(b1-2)Man(a1-3)[Neu5Ac(a2-6)Gal(b1-4)GlcNAc(b1-2)Man(a1-6)]Man(b1-4)GlcNAc(b1-4)[Fuc(a1-6)]GlcNAc
# How it was run: as §1
# [31] = molecular target: Neu5Ac(a2-6)Gal(b1-4)GlcNAc(b1-2)Man(a1-6)Man(b1-4)GlcNAc(b1-4)GlcNAc
# How it was run: as §1
# [32] = molecular target: Neu5Ac(a2-6)Gal(b1-4)GlcNAc(b1-2)Man(a1-6)[Gal(b1-4)GlcNAc(b1-2)Man(a1-3)]Man(b1-4)GlcNAc(b1-4)GlcNAc
# How it was run: as §1
# [33] = molecular target: Neu5Ac(a2-6)Gal(b1-4)GlcNAc(b1-2)Man(a1-6)[GlcNAc(b1-2)Man(a1-3)]Man(b1-4)GlcNAc(b1-4)GlcNAc
# How it was run: as §1
# [34] = molecular target: Neu5Ac(a2-6)Gal(b1-4)GlcNAc(b1-2)Man(a1-6)[Man(a1-3)]Man(b1-4)GlcNAc(b1-4)GlcNAc
# How it was run: as §1
# [35] = molecular target: Neu5Ac(a2-6)Gal(b1-4)GlcNAc(b1-2)[Neu5Ac(a2-6)Gal(b1-4)GlcNAc(b1-4)]Man(a1-3)[GlcNAc(b1-4)][Neu5Ac(a2-6)Gal(b1-4)GlcNAc(b1-2)[Neu5Ac(a2-6)Gal(b1-4)GlcNAc(b1-6)]Man(a1-6)]Man(b1-4)GlcNAc(b1-4)GlcNAc
# How it was run: as §1
# [36] = molecular target: Neu5Ac(a2-6)Gal(b1-4)GlcNAc(b1-2)[Neu5Ac(a2-6)Gal(b1-4)GlcNAc(b1-4)]Man(a1-3)[GlcNAc(b1-4)][Neu5Ac(a2-6)Gal(b1-4)GlcNAc(b1-4)Man(a1-6)]Man(b1-4)GlcNAc(b1-4)GlcNAc
# How it was run: as §1
# [37] = molecular target: Neu5Ac(a2-6)Gal(b1-4)GlcNAc(b1-2)[Neu5Ac(a2-6)Gal(b1-4)GlcNAc(b1-6)]Man(a1-6)[Neu5Ac(a2-6)Gal(b1-4)GlcNAc(b1-2)Man(a1-3)][GlcNAc(b1-4)]Man(b1-4)GlcNAc(b1-4)GlcNAc
# How it was run: as §1
# [38] = molecular target: Neu5Ac(a2-6)Gal(b1-4)GlcNAc(b1-3)Gal(b1-3)GlcNAc
# How it was run: as §1
# [39] = molecular target: Neu5Ac(a2-6)Gal(b1-4)GlcNAc(b1-3)Gal(b1-4)GlcNAc
# How it was run: as §1
# [40] = molecular target: Neu5Ac(a2-6)Gal(b1-4)GlcNAc(b1-3)Gal(b1-4)GlcNAc(b1-2)Man(a1-3)[Neu5Ac(a2-6)Gal(b1-4)GlcNAc(b1-3)Gal(b1-4)GlcNAc(b1-2)Man(a1-6)]GalNAc
# How it was run: as §1
# [41] = molecular target: Neu5Ac(a2-6)Gal(b1-4)GlcNAc(b1-3)Gal(b1-4)GlcNAc(b1-3)Gal(b1-4)GlcNAc
# How it was run: as §1
# [42] = molecular target: Neu5Ac(a2-6)Gal(b1-4)GlcNAc(b1-3)Gal(b1-4)GlcNAc(b1-3)Gal(b1-4)GlcNAc(b1-2)Man(a1-3)[Neu5Ac(a2-6)Gal(b1-4)GlcNAc(b1-3)Gal(b1-4)GlcNAc(b1-3)Gal(b1-4)GlcNAc(b1-2)Man(a1-6)]GalNAc
# How it was run: as §1
binder,measurement,setting,value
B1,glycan array binding signal (z-score),[1],0.494
same,glycan array binding signal (z-score),[2],-1.35
same,glycan array binding signal (z-score),[3],0.922
same,glycan array binding signal (z-score),[4],-0.312
same,glycan array binding signal (z-score),[5],-0.579
same,glycan array binding signal (z-score),[6],-1.32
same,glycan array binding signal (z-score),[7],-0.986
same,glycan array binding signal (z-score),[8],-0.29
same,glycan array binding signal (z-score),[9],1.04
same,glycan array binding signal (z-score),[10],0.237
same,glycan array binding signal (z-score),[11],-0.05
same,glycan array binding signal (z-score),[12],-1.73
same,glycan array binding signal (z-score),[13],-0.105
same,glycan array binding signal (z-score),[14],-0.686
same,glycan array binding signal (z-score),Neu5Ac(a2-3)GalNAc,-0.654
same,glycan array binding signal (z-score),[15],-0.142
same,glycan array binding signal (z-score),[16],0.368
same,glycan array binding signal (z-score),[17],0.582
same,glycan array binding signal (z-score),[18],-1.15
same,glycan array binding signal (z-score),[19],-1.16
same,glycan array binding signal (z-score),Neu5Ac(a2-6)Gal,0.316
same,glycan array binding signal (z-score),[20],-1.09
same,glycan array binding signal (z-score),Neu5Ac(a2-6)Gal(b1-4)Glc,0.455
same,glycan array binding signal (z-score),[21],-0.303
same,glycan array binding signal (z-score),[22],-1.07
same,glycan array binding signal (z-score),[23],0.505
same,glycan array binding signal (z-score),[24],-0.433
same,glycan array binding signal (z-score),[25],0.014
same,glycan array binding signal (z-score),[26],-1.12
same,glycan array binding signal (z-score),[27],0.247
same,glycan array binding signal (z-score),[28],-0.416
same,glycan array binding signal (z-score),[29],0.26
same,glycan array binding signal (z-score),[30],0.913
same,glycan array binding signal (z-score),[31],-0.426
same,glycan array binding signal (z-score),[32],-1.45
same,glycan array binding signal (z-score),[33],-0.085
same,glycan array binding signal (z-score),[34],0.853
same,glycan array binding signal (z-score),[35],-0.602
same,glycan array binding signal (z-score),[36],-1.17
same,glycan array binding signal (z-score),[37],-0.633
same,glycan array binding signal (z-score),[38],2.1
same,glycan array binding signal (z-score),[39],-0.389
same,glycan array binding signal (z-score),[40],0.016
same,glycan array binding signal (z-score),[41],-0.99
same,glycan array binding signal (z-score),[42],-0.195
